Experimental data as given in paper PMC6683576.

Protein sequences, listed by entry. Tags and fused reporters are not part of them.
UniProt P11142: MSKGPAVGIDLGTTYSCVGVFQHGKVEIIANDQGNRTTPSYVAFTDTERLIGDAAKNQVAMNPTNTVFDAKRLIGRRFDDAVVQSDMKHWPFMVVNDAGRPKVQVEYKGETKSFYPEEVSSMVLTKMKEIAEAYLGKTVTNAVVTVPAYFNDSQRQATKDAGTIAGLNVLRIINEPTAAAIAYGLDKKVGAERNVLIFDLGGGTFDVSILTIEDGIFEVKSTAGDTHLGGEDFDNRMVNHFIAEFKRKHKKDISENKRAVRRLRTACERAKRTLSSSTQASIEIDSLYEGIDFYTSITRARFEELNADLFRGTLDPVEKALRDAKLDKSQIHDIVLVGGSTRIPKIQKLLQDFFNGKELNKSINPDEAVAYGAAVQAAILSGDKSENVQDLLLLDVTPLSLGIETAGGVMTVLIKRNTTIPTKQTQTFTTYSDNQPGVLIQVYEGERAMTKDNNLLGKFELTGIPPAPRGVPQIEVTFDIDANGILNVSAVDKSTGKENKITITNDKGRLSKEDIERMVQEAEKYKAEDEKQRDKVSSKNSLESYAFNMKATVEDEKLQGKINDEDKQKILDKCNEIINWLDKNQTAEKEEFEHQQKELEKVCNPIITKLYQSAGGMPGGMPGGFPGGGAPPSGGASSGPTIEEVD

Target: T1, GKN2 (myc-tagged) (human) (UniProt Q86XP6)
T1 sequence: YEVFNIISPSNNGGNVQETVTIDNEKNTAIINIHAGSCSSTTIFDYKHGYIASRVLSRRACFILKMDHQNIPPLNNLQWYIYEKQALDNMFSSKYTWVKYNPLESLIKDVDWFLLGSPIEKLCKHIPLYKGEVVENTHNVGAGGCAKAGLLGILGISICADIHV
Assay: affinity purification with mass spectrometry; anti-myc antibody on Protein-G-Agarose beads, lysates of GKN2-overexpressing and control cells, overnight; SDS-PAGE, band excision, in-gel digestion, LC-MS/MS

Hsc70 (from UniProt P11142 1-646)
binding: binds

No constants are given. Whether binding was seen depends on the method and setting. Binding seen in cells or lysates may run through a third protein. A yes stands for co-enrichment or nearness to the bait. Other partners may have been found. Sequences can lack the tags named with a protein.
